PubChem BioAssay AID1259308 | NCATS – 2017
Assay: 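Genes whose loss raises luciferase production in HEK293 cells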 (primary screen). Cell system: human HEK293 embryonic kidney cells stably expressing firefly luciferase (HEK-CMV-Luc2-Hygro). Reagents: single siRNA against human genes, 0.8 pmol siRNA per well. Duration: 72 h. Measured: 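Luciferase light (ONE-Glo) measured on one replicate plate set and viability (CellTiter-Glo) on the other, scaled to a negative control siRNA, with robust z-scores and luciferase per cell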. Reading the numbers: total luciferase, z-score and total luciferase, % of control: higher = more reporter protein produced. Rule for the call: 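An siRNA counts as active if its total luciferase robust z-score exceeds 3; genes with two or more such siRNAs out of three were retested with fresh siRNAs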. Calls: active = raised luciferase; inactive = no rise.
The whole screen tested about 59,000 reagents; this is a part drawn at random. Of all reagents, about 1,510 (2.6%) were called active. 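Calls use total luciferase alone and ignore viability, so some active siRNAs may act by altering cell number.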 Further read-outs or replicates are left out here.

target gene	PubChem SID	total luciferase, z-score	total luciferase, % of control	call
PHLDB1 (GeneID 23187)	SID160735661	0.951	101	inactive
PHLDB1 (GeneID 23187)	SID160735662	-0.174	78.4	inactive
PHLDB1 (GeneID 23187)	SID160735663	1.91	120	inactive
PABPC1 (GeneID 26986)	SID160738213	2.61	134	inactive
PABPC1 (GeneID 26986)	SID160738214	2.74	136	inactive
PABPC1 (GeneID 26986)	SID160738215	-0.31	75.7	inactive
OR8K3 (GeneID 219473)	SID160761273	0.162	85.1	inactive
OR8K3 (GeneID 219473)	SID160761274	1.88	119	inactive
OR8K3 (GeneID 219473)	SID160761275	1.12	104	inactive
RPS25 (GeneID 6230)	SID160716207	-0.837	65.2	inactive
RPS25 (GeneID 6230)	SID160716208	-1.42	53.7	inactive
RPS25 (GeneID 6230)	SID160716209	-1.81	45.9	inactive
MRPS15 (GeneID 64960)	SID160748165	-2.4	34.2	inactive
MRPS15 (GeneID 64960)	SID160748166	0.791	97.6	inactive
MRPS15 (GeneID 64960)	SID160748167	-0.969	62.6	inactive
RNPS1P1 (GeneID 643446)	SID160768893	0.68	95.4	inactive
RNPS1P1 (GeneID 643446)	SID160768894	-1.78	46.5	inactive
RNPS1P1 (GeneID 643446)	SID160768895	-2.32	35.8	inactive
CENPBD2P (GeneID 65996)	SID160748382	0.502	91.9	inactive
CENPBD2P (GeneID 65996)	SID160748383	2.16	125	inactive
CENPBD2P (GeneID 65996)	SID160748384	1.97	121	inactive
RASEF (GeneID 158158)	SID160759604	0.518	92.2	inactive
RASEF (GeneID 158158)	SID160759605	1.48	111	inactive
RASEF (GeneID 158158)	SID160759606	-1.31	55.8	inactive

3 of these entries, set out differently.
{"target gene": "CENPBD2P (GeneID 65996)", "PubChem SID": "SID160748383", "total luciferase, z-score": 2.16, "total luciferase, % of control": 125, "call": "inactive"}
{"target gene": "CENPBD2P (GeneID 65996)", "PubChem SID": "SID160748384", "total luciferase, z-score": 1.97, "total luciferase, % of control": 121, "call": "inactive"}
{"target gene": "RASEF (GeneID 158158)", "PubChem SID": "SID160759604", "total luciferase, z-score": 0.518, "total luciferase, % of control": 92.2, "call": "inactive"}
